In paper PMC6995573:
These are yes or no findings as the source states them, for the method shown. Some entries that bind do so weakly or less than the wild type.

Target: Human ornithine decarboxylase (human) (UniProt P11926)
Experiment: AUC; sedimentation velocity, 20 °C, 30 mM Tris-HCl pH 7.4, 25 mM NaCl; ODC fixed at 0.3 mg/mL, AZ 0.02-0.19 mg/mL (AZ/ODC molar ratio 0.25 to 3); all data sets fitted to the AB hetero-association model in SEDPHAT; both purified

binding: binds
B1: Human ornithine decarboxylase (enzyme, UniProt P11926 2-421)
chain: NNFGNEEFDCHFLDEGFTAKDILDQKINEVSSSDDKDAFYVADLGDILKKHLRWLKALPRVTPFYAVKCNDSKAIVKTLAATGTGFDCASKTEIQLVQSLGVPPERIIYANPCKQVSQIKYAANNGVQMMTFDSEVELMKVARAHPKAKLVLRIATDDSKAVCRLSVKFGATLRTSRLLLERAKELNIDVVGVSFHVGSGCTDPETFVQAISDARCVFDMGAEVGFSMYLLDIGGGFPGSEDVKLKFEEITGVINPALDKYFPSDSGVRIIAEPGRYYVASAFTLAVNIIAKKIVLKEQTGSDDEDESSEQTFMYYVNDGVYGSFNCILYDHAHVKPLLQKRPKPDEKYYSSSIWGPTCDGLDRIVERCDLPEMHVGDWMLFENMGAYTVAAASTFNGFQRPTIYYVMSGPAWQLMQQFQ
